Results: PubChem BioAssay AID493014 (National Center for Advancing Translational Sciences (NCATS), 2011)
Several values for one entry are separate records, joined by “and”; a condition that tells them apart may be missing. Equal values may be shown once. This is one part of the list. These are further read-outs of the screen, such as a control signal, another cell line or another target. No call is given for them. Most of these compounds were active or inconclusive in the main read-out, so they are no random draw. The note in brackets gives the kind of curve behind each potency; many fits are weak.

Assay: qHTS Assay to Find Inhibitors of Chronic Active B-Cell Receptor Signaling
Settings: ABC-DLBCL IkBa-CBG/CBR reporter, luminescence ratio (green luciferase fused to IkBa over red control in TMD8 lymphoma cells), 4 h
Outline: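 Concentration-response series (up to 46 uM) were applied to TMD8 dual-reporter cells for 4 h at 37C with doxycycline. Green/red ratio, after filter-overlap correction, defined %Activity; red signal alone was normalised to basal cells and zero luminescence.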

[1] = measured here: CBR red luminescence, cell number
[2] = measured here: IkBa-CBG green luminescence

Row | SMILES | AC50 [1] | AC50 [2]
1 | CCc1c(C)nc2ncnn2c1NCCc1ccc(Cl)cc1 | 17.8 µM [falling, partial curve] | –
2 | COc1ccc(NC(=S)N2CCCC(CO)C2)c(OC)c1 (stereo not drawn) | 20.6 µM [rising, partial curve, poor fit] | –
3 | COc1ccc(-c2cn3cc(C(=O)NN)ccc3n2)cc1 | 3.98 µM [falling, partial curve] | –
4 | CCCc1ccc(C(=O)NC(=O)c2ccccc2O)cc1 | 2.24 µM [falling, full curve, poor fit] | –
5 | CCCNC(=O)C1CC(c2cccc(F)c2)=NO1 (stereo not drawn) | 14.1 µM [rising, single point] | –
6 | COc1cc(C(=O)Nc2nnc(C(C)(C)C)s2)c([N+](=O)[O-])cc1OC | 2.31 µM [rising, partial curve] | –
7 | O=C(COC(=O)COc1ccccc1)NCCC1=CCCCC1 | 0.731 µM [rising, full curve, poor fit] | –
8 | Cc1ccc(C(=O)/C=C/c2cn(CN3CCN(C)CC3)c3ccccc23)cc1 | 32.6 µM [falling, single point] | –
9 | O=C(NCCN1CCCC1)c1ccc2c(c1)N(Cc1ccc(F)cc1)C(=O)c1ccccc1S2=O (stereo not drawn) | 23.1 µM [falling, partial curve, poor fit] | –
10 | COc1ccc(CCN2C(=O)CC(NNC(=O)c3ccccc3Br)C2=O)cc1 (stereo not drawn) | 3.66 µM [falling, full curve, poor fit] | –
11 | O=C(Nc1cccnc1)c1sc(Nc2ccccc2)nc1-c1ccccc1 | 5.17 µM [falling, full curve, poor fit] | 20.6 µM [rising, partial curve, poor fit]
12 | Cc1cc(C)n(-c2nc(C)nc(NCc3ccccc3)n2)n1 | 0.731 µM [rising, full curve, poor fit] | –
13 | Cc1c(NC(=O)C(C)Sc2n[nH]c(N)n2)c(=O)n(-c2ccccc2)n1C (stereo not drawn) | 3.26 µM [falling, full curve, poor fit] | –
14 | Cc1cc2occ(CC(=O)N(C)CC(=O)Nc3cccc(F)c3)c2cc1C | 35.5 µM [falling, single point] | –
15 | Cc1cccc(C)c1NC(=S)N/N=C/c1ccc(OCCC(C)C)cc1 | 20.6 µM [rising, partial curve, poor fit] | –
16 | CCc1cc(=O)[nH]c(SCCc2ccccc2)n1 | 7.94 µM [falling, partial curve] | –
17 | O=C1CSC(c2cn(-c3ccccc3)nc2-c2cccs2)N1CC1CCCO1 (stereo not drawn) | 25.9 µM [falling, single point] | –
18 | Cn1ccnc1/C(=N\NC(=O)c1ccccc1)c1cccc([N+](=O)[O-])c1 | 3.98 µM [rising, full curve, poor fit] | –
19 | O=C(O)Cc1ccc(NC(=O)Nc2cccc3ccccc23)cc1 | 22.4 µM [falling, single point] | –
20 | Cc1ccc(-n2nc(C)c(NC(=O)CCl)c2C)cc1C | 18.4 µM [falling, partial curve] | –
21 | O=C1/C(=C/c2ccccc2Cl)SC(=S)N1CCC(=O)N1CCCCC1CCO (stereo not drawn) | 35.5 µM [falling, single point] | –
22 | O=C(CN1C(=O)NC2(CCCCCC2)C1=O)NCCc1ccccc1 | 11.6 µM [rising, partial curve, poor fit] | –

Row | SMILES | AC50 [1] | AC50 [2]
23 | Cc1ccc(NC(=O)Nc2ccc3c(c2)OCO3)cc1F | 0.794 µM [rising, full curve, poor fit] | –
24 | S=C(Nc1ccc(Cl)cc1)N1CCCCC1 | 8.2 µM [rising, partial curve, poor fit] | –
25 | Cc1ccccc1NC(=O)c1ccc2c(c1)N(C)CCS2 | 5.01 µM [falling, partial curve] | –
26 | Cc1ccc(OCCCSc2ncccn2)cc1C | 23.1 µM [rising, partial curve] | –
27 | C=CCNC(=S)NNC(=O)C(CCCC)CC(C)O (stereo not drawn) | 20.6 µM [rising, partial curve, poor fit] | –
28 | O=C(CCc1ccccc1)N(Cc1cccnc1)c1nc2c(F)cccc2s1 | 35.5 µM [falling, single point] | 14.1 µM [rising, partial curve, poor fit]
29 | O=C(Nc1ccc(Cl)c(Cl)c1)OCc1cccnc1 | 0.291 µM [rising, full curve] | –
30 | O=C(NCCc1ccc(Cl)cc1)C1CCCN(S(=O)(=O)c2cnc[nH]2)C1 (stereo not drawn) | 16.4 µM [falling, partial curve] | –
31 | Cc1ccc(NC(=O)C(NC2CCCC2)c2ccccc2)cc1Cl (stereo not drawn) | 35.5 µM [falling, single point] | –
32 | C(=N\n1cnnc1)/c1ccc(OCc2ccccc2)cc1 | 3.55 µM [rising, full curve, poor fit] | –
33 | Cc1nc(SCC(=O)NCc2ccc3c(c2)OCO3)c(C#N)c2c1CCCC2 | 11.2 µM [falling, partial curve, poor fit] | –
34 | Cc1ccc(NC(=O)N2CCC(c3ccccc3)C2)cc1C (stereo not drawn) | 10 µM [falling, partial curve] and 11.2 µM [falling, partial curve] | –
35 | Cc1csc(NC(=O)CSC2=NS(=O)(=O)c3cc(F)ccc3N2)n1 | 4.61 µM [falling, full curve] | –
36 | N#CCCN(Cc1cccs1)C(=O)Nc1ccccc1 | 2.24 µM [rising, partial curve] | –
37 | COc1ccc2sc(NCc3ccccc3)nc2c1 | 10 µM [falling, partial curve, poor fit] | –
38 | O=C(c1ccccc1/S(=N/S(=O)(=O)c1ccccc1)N1CCOCC1)N1CCOCC1 (stereo not drawn) | 0.461 µM [rising, full curve] | –
39 | O=C(N/N=C/c1c(O)ccc2ccccc12)c1cccnc1 | 35.5 µM [falling, single point] | –
40 | N#Cc1c2ccc(OCC(=O)NCc3ccco3)cc2n2ccccc12 | 1.26 µM [rising, partial curve, poor fit] | –
41 | COc1ccc(N2C(=O)C3C(c4ccc(OC)cc4O)NC(Cc4ccccc4)(C(=O)O)C3C2=O)cc1 (stereo not drawn) | 35.5 µM [falling, single point] | –
42 | CCCC1CCc2c(sc(N)c2C(N)=O)C1 (stereo not drawn) | 5.8 µM [rising, full curve, poor fit] | –
43 | COc1ccccc1OCc1ccc(C(=O)NN)o1 | 1.12 µM [falling, partial curve, poor fit] | –
44 | COc1ccc(-c2c(C)nn(-c3ccccc3)c2N)cc1 | 3.66 µM [falling, full curve] | –

Rewritten in markdown: 15 of the compounds above

| Row | SMILES | AC50 [1] | AC50 [2] |
| --- | --- | --- | --- |
| 24 | S=C(Nc1ccc(Cl)cc1)N1CCCCC1 | 8.2 µM [rising, partial curve, poor fit] | – |
| 25 | Cc1ccccc1NC(=O)c1ccc2c(c1)N(C)CCS2 | 5.01 µM [falling, partial curve] | – |
| 26 | Cc1ccc(OCCCSc2ncccn2)cc1C | 23.1 µM [rising, partial curve] | – |
| 27 | C=CCNC(=S)NNC(=O)C(CCCC)CC(C)O (stereo not drawn) | 20.6 µM [rising, partial curve, poor fit] | – |
| 28 | O=C(CCc1ccccc1)N(Cc1cccnc1)c1nc2c(F)cccc2s1 | 35.5 µM [falling, single point] | 14.1 µM [rising, partial curve, poor fit] |
| 29 | O=C(Nc1ccc(Cl)c(Cl)c1)OCc1cccnc1 | 0.291 µM [rising, full curve] | – |
| 30 | O=C(NCCc1ccc(Cl)cc1)C1CCCN(S(=O)(=O)c2cnc[nH]2)C1 (stereo not drawn) | 16.4 µM [falling, partial curve] | – |
| 31 | Cc1ccc(NC(=O)C(NC2CCCC2)c2ccccc2)cc1Cl (stereo not drawn) | 35.5 µM [falling, single point] | – |
| 32 | C(=N\n1cnnc1)/c1ccc(OCc2ccccc2)cc1 | 3.55 µM [rising, full curve, poor fit] | – |
| 33 | Cc1nc(SCC(=O)NCc2ccc3c(c2)OCO3)c(C#N)c2c1CCCC2 | 11.2 µM [falling, partial curve, poor fit] | – |
| 34 | Cc1ccc(NC(=O)N2CCC(c3ccccc3)C2)cc1C (stereo not drawn) | 10 µM [falling, partial curve] and 11.2 µM [falling, partial curve] | – |
| 35 | Cc1csc(NC(=O)CSC2=NS(=O)(=O)c3cc(F)ccc3N2)n1 | 4.61 µM [falling, full curve] | – |
| 36 | N#CCCN(Cc1cccs1)C(=O)Nc1ccccc1 | 2.24 µM [rising, partial curve] | – |
| 37 | COc1ccc2sc(NCc3ccccc3)nc2c1 | 10 µM [falling, partial curve, poor fit] | – |
| 38 | O=C(c1ccccc1/S(=N/S(=O)(=O)c1ccccc1)N1CCOCC1)N1CCOCC1 (stereo not drawn) | 0.461 µM [rising, full curve] | – |

Further results.

Row | SMILES | AC50 [1] | AC50 [2]
45 | CCOC(=O)c1c(CN2CCN(CCO)CC2)n(C)c2cc(Br)c(OC)cc12 | 11.2 µM [falling, partial curve, poor fit] | –
46 | CC(Oc1ccc2oc(-c3ccccc3)c(C(=O)O)c2c1)C(=O)O (stereo not drawn) | 20.6 µM [rising, partial curve] | –
47 | O=c1cc(O)c(-c2ccc(Cl)cc2)c(Cl)[nH]1 | 1.12 µM [falling, partial curve, poor fit] | –
48 | CCOC(=O)Cc1cc(=O)n2[nH]c(C)c(-c3ccccc3)c2n1 | 31.6 µM [falling, single point] | –
49 | COc1ccc(C(=O)N/C(=C\c2ccccc2)C(=O)NC(CCSC)C(=O)O)cc1 (stereo not drawn) | 3.55 µM [falling, single point] | –
50 | Cc1ccc(-n2c(C)nnc2SCC(=O)N(C)c2c(N)n(Cc3ccccc3)c(=O)[nH]c2=O)cc1 | 8.2 µM [rising, partial curve] | 25.9 µM [falling, partial curve, poor fit]
51 | O=C(CNC(=O)c1ccccc1Cl)N/N=C/c1ccc2c(c1)OCO2 | 7.08 µM [falling, partial curve, poor fit] | –
52 | O=c1nc(N/N=C/C=C/c2ccccc2)cn[nH]1 | 0.891 µM [falling, full curve, poor fit] | –
53 | CC1CCN(C(=O)/C=C/c2ccc(C(C)(C)C)cc2)CC1 | 10.3 µM [rising, partial curve] | –
54 | COc1ccc(-n2c(SCC(=O)NC3CC3)nc3ccccc3c2=O)cc1OC | 2.59 µM [rising, full curve, poor fit] | –
55 | O=C1N=C(N2CCN(c3ccccc3)CC2)S/C1=C\c1cn[nH]c1-c1ccccc1 | 20.6 µM [falling, partial curve] | –
56 | CCc1ccccc1NC(=O)c1cc(-c2ccco2)on1 | 14.1 µM [falling, partial curve, poor fit] | –
57 | Cc1ccc(N=CC2=C(O)CC(c3ccco3)CC2=O)cc1 (stereo not drawn) | 31.6 µM [falling, single point] | –
58 | O=C(COc1ccccc1C(=O)c1cnn(-c2ccccc2)c1)Nc1ccccc1 | 13 µM [falling, partial curve] | –
59 | COC(=O)c1ccc(-c2ccc(/C=N/N3C(=O)C4C5C=CC(C6CC56)C4C3=O)o2)cc1 (stereo not drawn) | 11.6 µM [falling, partial curve] | –
60 | CN(C)C(=O)c1ccc(NC(=O)COC(=O)C2(c3ccccc3)CCCC2)cc1 | 29.1 µM [falling, single point] | –
61 | CCN(CC)C(=O)CSC(=Nc1ccccc1F)NC#N | 5.8 µM [falling, full curve, poor fit] | –
62 | COc1cc2c(cc1O)CC[C@@H]1[C@@H]2CC[C@]2(C)[C@@H](O)CC[C@@H]12 | 12.6 µM [rising, single point] | 12.6 µM [falling, partial curve]
63 | CC1CCCC(NC(=O)c2n[nH]c(=O)c3ccccc23)C1C (stereo not drawn) | 3.98 µM [falling, partial curve, poor fit] | –
64 | COc1ccc(OC)c(NC(=O)CCC(=O)Nc2nnc(C(F)(F)F)s2)c1 | 2 µM [rising, full curve, poor fit] | –
